Earlier results, collected in patent US20230138414A1, “METHODS AND COMPOSITIONS FOR PREVENTING AND TREATING MYOPIA” (The Trustees of Columbia University in the City of New York, priority 2020, published 2023).
Where two headings read alike, the source gives them in different places.

What was measured:
[1] = system: progression of myopia; conditions: 1% atropine, cited from earlier work
[2] = system: progression of myopia in children; conditions: first 12 months after stopping the drug, cited from earlier work

SMILES: CN1[C@@H]2CC[C@H]1C[C@@H](OC(=O)C(CO)c1ccccc1)C2 (stereo partly shown) [atropine]
- part of the 2-year treatment effect eliminated by rebound ([1]; after discontinuation of treatment): approximately 60%
- rebound increase in the myopia progression rate compared to placebo ([1]; first 12 months after the cessation of atropine): 300%
- rebound increase in the progression rate compared to placebo ([2]; 0.1% atropine): 170%
- rebound increase in the progression rate compared to placebo ([2]; 0.5% atropine): 218%
